According to BindingDB's records for doi:10.1080/14756360400015256 (Cardiff University, 2005):
pIC50: −log10 of the molar value.

Target: T1, Aromatase (Homo sapiens, UniProt P11511)
T1 sequence (P11511 whole entry): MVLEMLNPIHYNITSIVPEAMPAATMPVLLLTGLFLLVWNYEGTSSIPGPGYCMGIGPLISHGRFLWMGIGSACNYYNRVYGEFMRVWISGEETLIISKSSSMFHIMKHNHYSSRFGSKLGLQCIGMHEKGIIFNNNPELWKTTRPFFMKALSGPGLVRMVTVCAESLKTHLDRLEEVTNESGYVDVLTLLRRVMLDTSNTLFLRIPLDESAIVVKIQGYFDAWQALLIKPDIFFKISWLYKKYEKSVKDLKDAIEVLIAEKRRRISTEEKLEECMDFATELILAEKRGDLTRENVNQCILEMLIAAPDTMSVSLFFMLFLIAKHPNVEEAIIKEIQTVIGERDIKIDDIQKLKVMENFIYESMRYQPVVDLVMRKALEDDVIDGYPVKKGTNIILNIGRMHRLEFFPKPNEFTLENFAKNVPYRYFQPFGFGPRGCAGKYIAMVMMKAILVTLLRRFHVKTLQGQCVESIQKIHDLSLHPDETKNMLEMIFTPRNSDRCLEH
Details: 37 °C

CC(C)(C#N)c1cc(Cn2cncn2)cc(C(C)(C)C#N)c1 [NSC719344]
pIC50: 6.22
